# Assay results: the supplement of paper PMC12889115
# The other results are listed elsewhere or left out. Values are raw readings; no control value is given beside them.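 Primary screen: polymyxin B was added at a level permeabilizing Salmonella outer membranes while sparing inner membranes. DMSO wells, both with and without polymyxin B, established maximum growth. Plate-to-plate variation meant each plate was ranked on its own, and the lowest-OD600 compounds were selected as hits.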
# System: Salmonella enterica serovar Typhimurium SL1344
# Assay: bacterial growth OD600 after 18 h with compound and polymyxin B; higher = more bacterial growth (less inhibition)
# Settings: 50 µM, Mueller-Hinton broth
compound,measurement,setting,value
O=C(CC1CC1)NC1CCCN(Cc2ccccc2F)C1 (stereo unspecified),bacterial growth OD600,polymyxin B 1 µg/mL,0.963
CC(C)OCCCN1C(=O)CCC1CCNCc1cc2c(cc1Cl)OCO2 (stereo unspecified),bacterial growth OD600,polymyxin B 0.75 µg/mL,0.934
C=C(C)CN(CC)C(=O)CC1C(=O)NCCN1Cc1c(F)cccc1Cl (stereo unspecified),bacterial growth OD600,polymyxin B 1 µg/mL,0.842
CSCCC(=O)N1CCCC(CCC(=O)NCc2ccccc2Cl)C1 (stereo unspecified),bacterial growth OD600,polymyxin B 1 µg/mL,1.22
CC(C)CN(C)C(=O)C1CCCN(C2CCN(C(=O)C3CC3)CC2)C1 (stereo unspecified),bacterial growth OD600,polymyxin B 0.75 µg/mL,0.783
COc1ccc(C(=O)Nc2ccnn2C2CCN(C(=O)CCc3ccccc3)CC2)cc1,bacterial growth OD600,polymyxin B 1 µg/mL,0.86
COc1ccc(-c2ccccc2NC(=O)C2CCCN2Cc2c[nH]c(C)n2)cc1 (stereo unspecified),bacterial growth OD600,polymyxin B 0.75 µg/mL,0.844
COC(=O)CCCNC(=O)CCC1(Cc2ccc(OC)c3ccccc23)CCC(=O)N1 (stereo unspecified),bacterial growth OD600,polymyxin B 0.75 µg/mL,0.853
Cc1nccn1-c1ccc(NC(=O)C2CCCN2C(=O)CC2=CCCCC2)cc1 (stereo unspecified),bacterial growth OD600,polymyxin B 0.75 µg/mL,0.835
CCCCNC(=O)N1C[C@H]2OC(=O)N(Cc3ccc(OC)c(OC)c3)[C@H]2C1,bacterial growth OD600,polymyxin B 0.75 µg/mL,0.819
Cc1nc(N2CCCC(NCCC3=CC[C@H]4C[C@@H]3C4(C)C)CC2)nc2cc(S(C)(=O)=O)ccc12 (stereo partly specified),bacterial growth OD600,polymyxin B 0.75 µg/mL,0.024
CN(Cc1nc(-c2ccccc2)no1)CC1CCN(Cc2ccccc2)CC1,bacterial growth OD600,polymyxin B 0.75 µg/mL,0.548
O=C(Nc1ccccc1Oc1cccnc1)C1CCCN1C1CCC1 (stereo unspecified),bacterial growth OD600,polymyxin B 0.75 µg/mL,0.749
CCN(C)C(=O)C1CCC(=O)N(CCc2ccc(OC)cc2)C1 (stereo unspecified),bacterial growth OD600,polymyxin B 1 µg/mL,1.01
Cc1oc(-c2cccc(NC(=O)C3CCCN(C)C3)c2)nc1CNC(=O)c1cc(C(C)C)on1 (stereo unspecified),bacterial growth OD600,polymyxin B 0.75 µg/mL,0.864
COc1ccc(C(=O)N2CCCC2)c(OC2CCN(C3CSCCSC3)CC2)c1,bacterial growth OD600,polymyxin B 1 µg/mL,1.08
CN(Cc1cccnc1)Cc1cn(Cc2ccccc2)nc1-c1ccc2c(c1)OCO2,bacterial growth OD600,polymyxin B 1 µg/mL,0.028
CCOC(=O)N1CCC(NC(=O)C2CC23CCN(C(=O)Cc2cccc(C(F)(F)F)c2)CC3)CC1 (stereo unspecified),bacterial growth OD600,polymyxin B 0.75 µg/mL,0.955
Cc1csc(CNC(=O)CC(c2cccc(O)c2)c2ccccc2Cl)n1 (stereo unspecified),bacterial growth OD600,polymyxin B 1 µg/mL,0.74
Cn1cc(CN2CCCN(C=O)CC2)c(-c2ccc(C3CCCCC3)cc2)n1,bacterial growth OD600,polymyxin B 1 µg/mL,0.467
O=C(C1CCN(c2nc(-c3ccccc3)nc3c2CCC3)CC1)N1CCSCC1,bacterial growth OD600,polymyxin B 1 µg/mL,0.016
COc1ccc(-c2n[nH]cc2CNCCc2ccc(Cl)cc2)cc1F,bacterial growth OD600,polymyxin B 1 µg/mL,0.797
O=C(c1ccc2c3c(cccc13)CC2)C1CCCN(C(=O)c2cnn3cccnc23)C1 (stereo unspecified),bacterial growth OD600,polymyxin B 1 µg/mL,0.795
CCOC(=O)N1CCN(C(=O)c2cn(C3CCCCC3)nn2)CC1,bacterial growth OD600,polymyxin B 1 µg/mL,0.845
CC(C)c1nc(CNC(=O)c2cc(COc3c(F)cccc3F)on2)cs1,bacterial growth OD600,polymyxin B 0.75 µg/mL,0.383
O=C(Cn1cc(NC(=O)CCC(=O)c2ccccc2)cn1)NCCCn1ncc2ccccc21,bacterial growth OD600,polymyxin B 0.75 µg/mL,0.84
C1CCC(Nc2nc3nonc3nc2N2CCN(C3CCCC3)CC2)C1,bacterial growth OD600,polymyxin B 1 µg/mL,0.892
CC(=O)NCCC1CCCCN1Cc1nc(-c2ccccn2)no1 (stereo unspecified),bacterial growth OD600,polymyxin B 1 µg/mL,0.83
COc1ccc(OC)c(-c2cc(Cl)c3c(c2)CC(CNC(=O)c2cccnc2C)O3)c1 (stereo unspecified),bacterial growth OD600,polymyxin B 0.75 µg/mL,0.002
COc1ccc(-c2noc(CN(C)Cc3ccc(F)cc3)n2)c(OC)c1OC,bacterial growth OD600,polymyxin B 1 µg/mL,0.758
Cn1ccnc1CN1C[C@H]2OC(=O)N(CCc3ccc(F)cc3)[C@H]2C1,bacterial growth OD600,polymyxin B 0.75 µg/mL,0.809

# 2 records picked at random from those above, as already listed:
compound,measurement,setting,value
COc1ccc(-c2noc(CN(C)Cc3ccc(F)cc3)n2)c(OC)c1OC,bacterial growth OD600,polymyxin B 1 µg/mL,0.758
CC(C)OCCCN1C(=O)CCC1CCNCc1cc2c(cc1Cl)OCO2 (stereo unspecified),bacterial growth OD600,polymyxin B 0.75 µg/mL,0.934
